The subject of the experiment is CD2F1 mice, L1210 leukemia ip, survival T/C. In words: NCI In Vivo Anticancer Drug Screen. Data for tumor model L1210 Leukemia (intraperitoneal) in CD2F1 (CDF1) mice. Conditions: higher T/C = longer survival. Summed up: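 Tumor-bearing mice (transplanted tumor) were split into treated and vehicle control groups, and the measured endpoint of each treated group was divided by that of its vehicle controls.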

The mark [1] stands for this setting: T/C endpoint: mean survival time, dose: 200.0 mg/kg/injection, schedule: Q04DX003 (ip), vehicle: saline.
[2] abbreviates: T/C endpoint: mean survival time, dose: 400.0 mg/kg/injection, schedule: Q04DX003 (ip), vehicle: saline.
[3] abbreviates: T/C endpoint: mean survival time, dose: 300.0 mg/kg/injection, schedule: Q01DX001 (ip), vehicle: other.
The mark [4] stands for this setting: T/C endpoint: mean survival time, dose: 200.0 mg/kg/injection, schedule: Q04DX003 (ip), vehicle: saline with Tween-80.
The mark [5] stands for this setting: T/C endpoint: mean survival time, dose: 400.0 mg/kg/injection, schedule: Q04DX003 (ip), vehicle: saline with Tween-80.
Where [6] appears, read: T/C endpoint: mean survival time, dose: 100.0 mg/kg/injection, schedule: Q01DX009 (ip), vehicle: saline with Tween-80.
Setting [7] is: T/C endpoint: mean survival time, dose: 200.0 mg/kg/injection, schedule: Q01DX009 (ip), vehicle: saline with Tween-80.
[8] abbreviates: T/C endpoint: mean survival time, dose: 25.0 mg/kg/injection, schedule: Q01DX009 (ip), vehicle: water.
Where [9] appears, read: T/C endpoint: mean survival time, dose: 400.0 mg/kg/injection, schedule: Q01DX009 (ip), vehicle: water.
Where [10] appears, read: T/C endpoint: mean survival time, dose: 150.0 mg/kg/injection, schedule: Q01DX001 (ip), vehicle: saline.

SMILES strings stand for the structures. The list does not hold the whole screen: it gathers tests that were run many times, whatever their T/C, doses with no T/C, and many T/C values between a quarter and a half above the control. Further doses and runs are listed elsewhere. T/C gives the treated animals as a percentage of the vehicle group. Some doses have a count of surviving animals in place of a T/C: the source holds a T/C of zero for them, seemingly a mark for toxic or unscored doses. Some survivor counts are full or nearly so, which does not show that the dose was tolerated: the source hardly ever lists a survival T/C far under the control, and the zero likely stands for such cases as well. Survivors were counted at the toxicity check, usually on the fifth day, unless a day is given; later deaths do not show. Schedules are NCI's codes, read here as Q, the interval in days (D) or hours (H), X, the number of doses. Some doses were run more than once; the results are listed from low to high. For survival time, this PubChem deposit counts one and a half times the control or more as active, and values a quarter to a half above the control carry no call in these data; other NCI protocols may use other cut-offs.

For `Oc1ccccc1C=NCC[N-]CCN=Cc1ccccc1O.[Co]`, the survivor count is, setting by setting: under setting [1], 2 of 6; under setting [2], 0 of 6.
As for `C=CCNc1ncnc2c1ncn2C1OC(CO)C(O)C1O` (stereo unspecified), the survivor count under setting [3] is reported as 0 of 6.
For the compound `c1ccc(-c2cc(-c3ccccc3)[o+]c(-c3ccccc3)c2)cc1`, the survivor count under setting [4] is on record as 1 of 6 and the survivor count under setting [5] is 0 of 6.
As for `CSc1ccc(N2C(N)=NC(N)=NC2(C)C)cc1`, the survivor count by setting is: (T/C endpoint: mean survival time, dose: 100.0 mg/kg/injection, schedule: Q04DX002 (ip), vehicle: saline) 0 of 3; (T/C endpoint: mean survival time, dose: 200.0 mg/kg/injection, schedule: Q04DX002 (ip), vehicle: saline) 0 of 3.
Turning to `NC(=Nc1ccccc1)Nc1ccccc1`, the survivor count under setting [6] is listed as 1 of 3 and the survivor count under setting [7] is 0 of 3.
Regarding `COc1cc(OC)c(/C=C/c2cc3ccccc3c[n+]2C)c(OC)c1`, the survivor count (T/C endpoint: mean survival time, dose: 12.5 mg/kg/injection, schedule: Q01DX009 (ip), vehicle: saline with Tween-80) is 0 of 3.
Consider `N=c1c2cnn(C3OC(CO)C(O)C3O)c2ncn1N` (stereo unspecified), for which the T/C under setting [8] was 126 % of control. Further, the survivor count runs as follows: under setting [8], 6 of 6; (T/C endpoint: mean survival time, dose: 50.0 mg/kg/injection, schedule: Q01DX009 (ip), vehicle: water) 5 of 6; (T/C endpoint: mean survival time, dose: 100.0 mg/kg/injection, schedule: Q01DX009 (ip), vehicle: water) 3 of 5; (T/C endpoint: mean survival time, dose: 200.0 mg/kg/injection, schedule: Q01DX009 (ip), vehicle: water) 0 of 5; under setting [9], 0 of 5.
`CN1C(=O)C=CC1=O`: the survivor count (T/C endpoint: mean survival time, dose: 8.0 mg/kg/injection, schedule: Q01DX009 (ip), vehicle: saline) is listed as 0 of 6.
For the compound `CCC12C[N+]3([O-])CCc4c([nH]c5ccccc45)C(C(=O)OC)(c4cc5c(cc4OC)N(C)C4C(O)(C(=O)OC)C(OC(C)=O)C6(CC)C=CCN7CCC54C76)CC(C3)C1O2` (stereo unspecified), the T/C (T/C endpoint: median survival time, dose: 10.0 mg/kg/injection, schedule: Q01DX009 (ip), vehicle: water) was 133 % of control.
On to `CC1(C)C(O)C(C)(C)C1O` (stereo unspecified), for which the survivor count under setting [6] is reported as 3 of 6, the survivor count under setting [4] is recorded as 2 of 6 and the survivor count under setting [5] is given as 0 of 6.
For `Oc1cc(O)c(Cl)cc1Cl`, the survivor count is, setting by setting: (T/C endpoint: mean survival time, dose: 200.0 mg/kg/injection, schedule: Q01DX001 (ip), vehicle: saline) 3 of 6; (T/C endpoint: mean survival time, dose: 400.0 mg/kg/injection, schedule: Q01DX001 (ip), vehicle: saline) 0 of 6.
Turning to `O=C(c1ccccc1)C1C(c2ccccc2)C2(CCCCC2=O)C(c2ccccc2)CC1(O)c1ccccc1` (stereo unspecified), the survivor count (T/C endpoint: mean survival time, dose: 200.0 mg/kg/injection, schedule: Q01DX001 (ip), vehicle: Klucel (hydroxypropylcellulose) (HPC)) was 3 of 3 and the survivor count (T/C endpoint: mean survival time, dose: 400.0 mg/kg/injection, schedule: Q01DX001 (ip), vehicle: Klucel (hydroxypropylcellulose) (HPC)) was 3 of 3.
On to `CC(N)c1ccc(OCCOc2ccc(C(C)(C)CC(C)(C)C)cc2)cc1` (stereo unspecified), for which the survivor count by setting is: (T/C endpoint: mean survival time, dose: 50.0 mg/kg/injection, schedule: Q01DX009 (ip), vehicle: Klucel (hydroxypropylcellulose) (HPC)) 3 of 6; (T/C endpoint: mean survival time, dose: 100.0 mg/kg/injection, schedule: Q01DX009 (ip), vehicle: Klucel (hydroxypropylcellulose) (HPC)) 0 of 6; (T/C endpoint: mean survival time, dose: 200.0 mg/kg/injection, schedule: Q01DX009 (ip), vehicle: Klucel (hydroxypropylcellulose) (HPC)) 0 of 6.
Consider `CCOC(=O)c1ccc(NC(=O)Nc2nncs2)cc1`, for which the survivor count (T/C endpoint: mean survival time, dose: 200.0 mg/kg/injection, schedule: Q01DX009 (ip), vehicle: distilled water + Tween-80) is reported as 4 of 6.
As for `O=C1CCC(=O)N1C1C=CC=CC=C1`, the survivor count (T/C endpoint: mean survival time, dose: 200.0 mg/kg/injection, schedule: Q04DX003 (ip), vehicle: acetone) was 3 of 6.
For the compound `CC#CCOCC(O)CCl` (stereo unspecified), the survivor count by setting is: (T/C endpoint: median survival time, dose: 400.0 mg/kg/injection, schedule: Q01DX005 (ip), vehicle: suspension in saline) 5 of 6; (T/C endpoint: median survival time, dose: 800.0 mg/kg/injection, schedule: Q01DX005 (ip), vehicle: saline) 2 of 6; (T/C endpoint: median survival time, dose: 800.0 mg/kg/injection, schedule: Q01DX005 (ip), vehicle: suspension in saline) 0 of 6.
For `N#CCCN1CCS(=O)(=O)C1=O`, the survivor count was 2 of 6 (T/C endpoint: mean survival time, dose: 75.0 mg/kg/injection, schedule: Q01DX001 (ip), vehicle: other) and 0 of 6 under setting [3].
Take `CS(=O)(=O)N1CCCCC1`: the survivor count under setting [10] is reported as 0 of 6 and the survivor count (T/C endpoint: mean survival time, dose: 300.0 mg/kg/injection, schedule: Q01DX001 (ip), vehicle: saline) is 0 of 6.
Consider `CC(=O)Oc1ccc(N2C(=O)C3C(C2=O)C2c4ccccc4C3C3CCCCN32)cc1` (stereo unspecified) (tested in a mixture with another compound), for which the survivor count under setting [9] is on record as 0 of 6.
For `Nc1nnnc2c1ncn2C1OC(CO)C(O)C1O` (stereo unspecified), the T/C (T/C endpoint: mean survival time, dose: 75.0 mg/kg/injection, schedule: Q01DX001 (ip), vehicle: saline) is 130 % of control and the T/C under setting [10] was 130 % of control.
For `CC(C)(O)C(=O)N/N=C/c1ccc(Cl)cc1`, the survivor count (T/C endpoint: mean survival time, dose: 400.0 mg/kg/injection, schedule: Q01DX009 (ip), vehicle: saline with Tween-80) is reported as 0 of 6.
For `C[N+](C)(C)Cc1ccccc1`, the survivor count was 4 of 6 (T/C endpoint: mean survival time, dose: 25.0 mg/kg/injection, schedule: Q04DX003 (ip), vehicle: saline); 0 of 6 (T/C endpoint: mean survival time, dose: 50.0 mg/kg/injection, schedule: Q04DX003 (ip), vehicle: saline); 6 of 6 (T/C endpoint: mean survival time, dose: 100.0 mg/kg/injection, schedule: Q04DX003 (ip), vehicle: saline); 4 of 6 under setting [1]; 0 of 6 under setting [2].
For `N#CC(c1ccccn1)N1CCOCC1` (stereo unspecified), the T/C by setting is: (T/C endpoint: mean survival time, dose: 25.0 mg/kg/injection, schedule: Q04DX002 (ip), vehicle: saline with Tween-80) 93, 95, 96, 126 % of control; (T/C endpoint: mean survival time, dose: 50.0 mg/kg/injection, schedule: Q04DX002 (ip), vehicle: saline with Tween-80) 97, 101, 104, 106 % of control; (T/C endpoint: mean survival time, dose: 100.0 mg/kg/injection, schedule: Q04DX002 (ip), vehicle: saline with Tween-80) 93, 98, 100, 110 % of control. The survivor count is 1 of 6 and 1 of 3 under setting [7]; 0 of 3 (T/C endpoint: mean survival time, dose: 200.0 mg/kg/injection, schedule: Q04DX002 (ip), vehicle: saline with Tween-80); 1 of 6 under setting [4]; 0 of 3 and 0 of 6 (T/C endpoint: mean survival time, dose: 400.0 mg/kg/injection, schedule: Q04DX002 (ip), vehicle: saline with Tween-80).
For the compound `CCCC(=O)Nc1ccn(C2OC(COC(=O)CCC)C(OC(=O)CCC)C2OC(=O)CCC)c(=O)n1` (stereo unspecified), under “T/C endpoint: mean survival time, dose: 400.0 mg/kg/injection, schedule: Q01DX009 (ip), vehicle: Klucel (hydroxypropylcellulose) (HPC)”, the T/C is 132 % of control.
`C[N+](C)(CCO)Cc1ccccc1`: the survivor count reads like this: under setting [4], 4 of 6; under setting [5], 0 of 6.
As to `CC1CC(C)(C)N=C(CCCCCCl)O1` (stereo unspecified), where the note is “T/C endpoint: mean survival time, dose: 400.0 mg/kg/injection, schedule: Q01DX001 (ip), vehicle: saline with Tween-80”, the survivor count is 0 of 6.
For `COc1ccc(C(OCC2OC(n3cc(C)c(=O)[nH]c3=O)CC2OP(=O)(O)OCC2OC(n3cc(C)c(=O)[nH]c3=O)CC2OP(=O)(O)OCC2OC(n3cc(C)c(=O)[nH]c3=O)CC2OP(=O)(O)OCC2OC(n3cc(C)c(=O)[nH]c3=O)CC2OP(=O)(O)OCC2OC(n3ccc(N)nc3=O)C(O)C2O)(c2ccccc2)c2ccccc2)cc1` (stereo unspecified), the T/C runs as follows: (T/C endpoint: median survival time, dose: 50.0 mg/kg/injection, schedule: Q01DX005 (ip), vehicle: saline) 131 % of control; (T/C endpoint: median survival time, dose: 100.0 mg/kg/injection, schedule: Q01DX005 (ip), vehicle: saline) 131 and 137 % of control; (T/C endpoint: median survival time, dose: 200.0 mg/kg/injection, schedule: Q01DX005 (ip), vehicle: saline) 141 and 146 % of control.
As for `O=CC(CO)OC(C=O)n1ccc(=O)[nH]c1=O` (stereo unspecified), the T/C (T/C endpoint: median survival time, dose: 100.0 mg/kg/injection, schedule: Q04DX003 (ip), vehicle: saline) is 134 % of control.

(Values after PubChem BioAssay AID256 (DTP/NCI, 2004).)
